Source: the supplement of paper PMC4604168 (melanoma cell lines)
The other results are listed elsewhere or left out. Repeats are few or missing, and single values can be far off.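 The apoptosis fraction was the count of cleaved-PARP antibody-stained nuclei relative to all DNA-stained nuclei, imaged in 1,536-well plates. Screening doses were set so most cells survived, and baseline and induced cleaved-PARP levels vary greatly across cell lines.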

Key:
Assay in all cases: cleaved PARP positive nuclei fraction relative to DMSO control; melanoma cells; higher = more apoptosis
Settings in all cases: library dose: low library concentration; 72 h
MZ2-MEL = tested on: MZ2-MEL
MeWo = tested on: MeWo
RPMI7951 = tested on: RPMI7951
RVH-421 = tested on: RVH-421
SkMel28 = tested on: SkMel28
SkMel2 = tested on: SkMel2
SkMel30 = tested on: SkMel30
SkMel5 = tested on: SkMel5
UACC257 = tested on: UACC257
UACC62 = tested on: UACC62

Structure (SMILES) | cleaved PARP positive nuclei fraction (MZ2-MEL) | cleaved PARP positive nuclei fraction (MeWo) | cleaved PARP positive nuclei fraction (RPMI7951) | cleaved PARP positive nuclei fraction (RVH-421) | cleaved PARP positive nuclei fraction (SkMel28) | cleaved PARP positive nuclei fraction (SkMel2) | cleaved PARP positive nuclei fraction (SkMel30) | cleaved PARP positive nuclei fraction (SkMel5) | cleaved PARP positive nuclei fraction (UACC257) | cleaved PARP positive nuclei fraction (UACC62)
NC(=O)c1ccc(N(C(N)=O)c2c(F)cccc2F)nc1-c1ccc(F)cc1F + O=C(Nc1ccccc1)c1cc([N+](=O)[O-])ccc1Cl [GW9662] (first compound 0.4 µM, partner dose 2 µM) | 175% | 65.1% | 146% | 75.5% | 37.6% | 67.5% | 240% | 97.5% | 96.9% | 153%
NC(=O)c1ccc(N(C(N)=O)c2c(F)cccc2F)nc1-c1ccc(F)cc1F + Nc1ccn([C@@H]2O[C@H](CO)[C@@H](O)C2(F)F)c(=O)n1 [gemcitabine] (first compound 0.4 µM, partner dose 0.0004 µM) | 110% | 64.8% | 73.9% | 61.4% | 80.6% | 39.3% | 31.9% | 51% | 51% | 94%
CC(=O)O[C@@]12CO[C@@H]1C[C@H](O)[C@@]1(C)C(=O)[C@H](O)C3=C(C)[C@@H](OC(=O)[C@H](O)[C@@H](NC(=O)OC(C)(C)C)c4ccccc4)C[C@@](O)([C@@H](OC(=O)c4ccccc4)[C@H]21)C3(C)C [Docetaxel] + CO[C@@H]1[C@H](N(C)C(=O)c2ccccc2)C[C@H]2O[C@]1(C)n1c3ccccc3c3c4c(c5c6ccccc6n2c5c31)C(=O)NC4 [Midostaurin] (first compound 0.0001 µM, partner dose 0.08 µM) | 334% | 170% | 163% | 82.6% | 245% | 406% | 164% | 105% | 1150% | 157%
Cn1sc(=O)n(Cc2ccccc2)c1=O + Cc1cc(N2CCOCC2)cc2[nH]c(-c3c(NC[C@@H](O)c4cccc(Cl)c4)cc[nH]c3=O)nc12 [BMS536924] (first compound 0.4 µM, partner dose 0.2 µM) | 250% | 49.3% | 46.2% | 70.7% | 64.8% | 104% | 190% | 146% | 74.9% | 233%
NC1(c2ccc(-c3nc4ccn5c(=O)[nH]nc5c4cc3-c3ccccc3)cc2)CCC1 + O=S(=O)(c1ccccc1)N(CC(F)(F)F)c1ccc(C(O)(C(F)(F)F)C(F)(F)F)cc1 [T0901317] (first compound 0.4 µM, partner dose 1.4 µM) | 165% | 33% | 33% | 127% | 89.4% | 127% | 326% | 77.7% | 89.1% | 332%
CS(=O)(=O)c1ccc(C(=O)Nc2ccc(Cl)c(-c3ccccn3)c2)c(Cl)c1 [vismodegib] + O=C(Nc1cccc(Cl)c1)Nc1ncc(CCNc2ncnc3ccsc23)s1 [SNS314] (first compound 1 µM, partner dose 0.0008 µM) | 107% | 106% | 79.3% | 885% | 214% | 68.4% | 71.2% | 66.5% | 62.3% | 88.7%
NC(=O)c1ccc(N(C(N)=O)c2c(F)cccc2F)nc1-c1ccc(F)cc1F + COc1ccc(COc2ccc(Cc3cnc(N)nc3N)cc2OC)cc1 [GW2580] (first compound 0.4 µM, partner dose 1 µM) | 174% | 83.8% | 33.4% | 146% | 106% | 112% | 67.8% | 359% | 52.1% | 968%
NC(=O)c1ccc(N(C(N)=O)c2c(F)cccc2F)nc1-c1ccc(F)cc1F + COc1cc2ncnc(Nc3ccc(Oc4ccccc4)cc3)c2cc1OC [SrcI1] (first compound 0.4 µM, partner dose 2 µM) | 212% | 122% | 46.7% | 69% | 393% | 53.9% | 91.2% | 75.2% | 127% | 187%
C[C@]1(O)C[C@@H](c2nc(-c3ccc4ccc(-c5ccccc5)nc4c3)c3c(N)nccn32)C1 + CN(C)S(=O)(=O)c1ccc2c(c1)/C(=C/c1cc3c([nH]1)CCCC3)C(=O)N2 [SU6656] (first compound 0.4 µM, partner dose 0.4 µM) | 226% | 168% | 118% | 201% | 47.4% | 33.9% | 99.8% | 123% | 90.2% | 156%
CS(=O)(=O)c1ccc(C(=O)Nc2ccc(Cl)c(-c3ccccn3)c2)c(Cl)c1 [vismodegib] + COc1ccc2c(c1)CCC1C2CCC2(C)C(NCCCCCCN3C(=O)C=CC3=O)CCC12 [U73122] (first compound 1 µM, partner dose 0.4 µM) | 87.4% | 58% | 59.4% | 165% | 34.4% | 122% | 60.6% | 77.8% | 117% | 58.5%

2 entries from above, with tabs.
Structure (SMILES)	cleaved PARP positive nuclei fraction (MZ2-MEL)	cleaved PARP positive nuclei fraction (MeWo)	cleaved PARP positive nuclei fraction (RPMI7951)	cleaved PARP positive nuclei fraction (RVH-421)	cleaved PARP positive nuclei fraction (SkMel28)	cleaved PARP positive nuclei fraction (SkMel2)	cleaved PARP positive nuclei fraction (SkMel30)	cleaved PARP positive nuclei fraction (SkMel5)	cleaved PARP positive nuclei fraction (UACC257)	cleaved PARP positive nuclei fraction (UACC62)
Cn1sc(=O)n(Cc2ccccc2)c1=O + Cc1cc(N2CCOCC2)cc2[nH]c(-c3c(NC[C@@H](O)c4cccc(Cl)c4)cc[nH]c3=O)nc12 [BMS536924] (first compound 0.4 µM, partner dose 0.2 µM)	250%	49.3%	46.2%	70.7%	64.8%	104%	190%	146%	74.9%	233%
NC(=O)c1ccc(N(C(N)=O)c2c(F)cccc2F)nc1-c1ccc(F)cc1F + COc1cc2ncnc(Nc3ccc(Oc4ccccc4)cc3)c2cc1OC [SrcI1] (first compound 0.4 µM, partner dose 2 µM)	212%	122%	46.7%	69%	393%	53.9%	91.2%	75.2%	127%	187%
